PubChem BioAssay AID652259 | Drosophila RNAi Screening Center, 2013

Purpose: 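Knock-downs that push a Wingless-driven reporter up or down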 (primary screen)
System: Drosophila clone 8 imaginal disc epithelial cells
Reagents: long dsRNA against Drosophila genes
Challenge: pathway stimulated by co-transfected Wingless expression plasmid
Read-out: 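Dual luciferase reads per well after Wingless plasmid stimulation: reporter firefly light and Renilla control light; activity is firefly divided by Renilla, a ratio not deposited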
Direction: firefly reporter light: higher = more Wg reporter light, before normalisation; Renilla control light: higher = more transfected or surviving cells
Hit rule: 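Strong candidates differ from their plate mean by at least two out of four per-plate statistical tests; weak candidates meet just one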
Meaning of the calls: active = candidate regulator (raises or lowers reporter); inactive = not a candidate
The deposit covers about 22,000 reagents; shown is a random part of those that have a named target and a result. Of all reagents, 233 (1.1%) are marked active. 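Light values are raw, unnormalised plate reads; the ratio scores behind the reporter calls were not deposited.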 A number with no mark means an inactive call. Reagents against one gene are numbered here. A plus sign joins genes that one reagent is predicted to hit. Not stated in the record: the amount of reagent, the time to read-out, the dose of the treatment.

predicted target	reagent	reporter change call, replicate 1	firefly reporter light, replicate 1	firefly reporter light, replicate 2	Renilla control light, replicate 1	Renilla control light, replicate 2
Klp98A (GeneID 43310)	1		9948		4282	
Klp98A (GeneID 43310)	2		3.76e5	4.71e5	1.33e5	1.74e5
msb1l (GeneID 35254)	1		6775		1464	
Set8 (GeneID 41743)	1		3517		2194	
mRpL20 (GeneID 39477)	1		6901		3169	
l(2)37Cd (GeneID 35193)	1		9190		2631	
CG5254 (GeneID 31020)	1		13280		13248	
CG13896 (GeneID 38089)	1		5799		2662	
Trf (GeneID 34102)	1		3015	7320	1142	3915
Atg101 (GeneID 32871)	1		12674		6563	
jp (GeneID 34274)	1		12901		2240	
jp (GeneID 34274)	2		4614	7474	1058	2416
mop (GeneID 39610)	1		3048		1184	
PIG-A (GeneID 37020)	1		11332		3169	
CG4004 (GeneID 32226)	1		2696	5216	1173	2052
CG4004 (GeneID 32226)	2		20355		10008	
CG32645 (GeneID 32264)	1		25289		12649	
CG32645 (GeneID 32264)	2		17548		9057	
CG6040 (GeneID 42292)	1		1952	4407	672	1408
CG3808 (GeneID 40074)	1		9421		1837	
CG32681 (GeneID 318151)	1		3512		1558	
Cngl (GeneID 32468)	1		5552		839	
Cngl (GeneID 32468)	2		1992	4455	717	1541
Cngl (GeneID 32468)	3		23030		11922	
CG14113 (GeneID 50287)	1		7813		3280	
sit (GeneID 42658)	1		11180		6400	
Sirt7 (GeneID 43433)	1		2925	4969	1725	1171
MED21 (GeneID 3354977)	1		22033		14808	
sol (GeneID 44014)	1		12488		7748	
CG34305 (GeneID 5740825)	1		2770		1357	
ALiX (GeneID 43330)	1		2528	7908	1099	2216
Cpr97Eb (GeneID 43259)	1		8917		3555	
CG31468 (GeneID 251937)	1		4496		2189	
CG18536 (GeneID 37093)	1		6358		2578	
CG18417 (GeneID 38829)	1		1270	7648	1140	3468
ATPsynCF6L (GeneID 38592)	1		1507	10149	1468	4529
CG9117 (GeneID 33846)	1		2397	6817	864	2184
bmm (GeneID 39611)	1		5707		2539	
CG17780 (GeneID 42914)	1		20005		13442	
CG9168 (GeneID 38163)	1		5851		2288	
CG32344 (GeneID 326208)	1		14393		4568	
Cpr57A + Obp57d	1		7834		2054	
Cpr57A + Obp57d	2		4.18e5	3.68e5	1.19e5	1.27e5
puc (GeneID 40958)	1		14534		3878	
CG14107 (GeneID 39498)	1	Wg reporter activity lowered (active)	1648		2326	
Polr1F (GeneID 33963)	1		8850		3971	
CG1572 (GeneID 32098)	1		2956	8017	1446	3237
CG1888 (GeneID 35979)	1		3131	8374	708	3688
Mur2B (GeneID 31111)	1		20978		18809	
Mur2B (GeneID 31111)	2		28141		18693	
nmdyn-D6 (GeneID 32396)	1		20016		10603	

A portion from the list above:
predicted target	reagent	reporter change call, replicate 1	firefly reporter light, replicate 1	firefly reporter light, replicate 2	Renilla control light, replicate 1	Renilla control light, replicate 2
mRpL20 (GeneID 39477)	1		6901		3169	
l(2)37Cd (GeneID 35193)	1		9190		2631	
CG5254 (GeneID 31020)	1		13280		13248	
CG13896 (GeneID 38089)	1		5799		2662	
Trf (GeneID 34102)	1		3015	7320	1142	3915
Atg101 (GeneID 32871)	1		12674		6563	
jp (GeneID 34274)	1		12901		2240	
jp (GeneID 34274)	2		4614	7474	1058	2416
mop (GeneID 39610)	1		3048		1184	
PIG-A (GeneID 37020)	1		11332		3169	
CG4004 (GeneID 32226)	1		2696	5216	1173	2052
CG4004 (GeneID 32226)	2		20355		10008	
CG32645 (GeneID 32264)	1		25289		12649	
CG32645 (GeneID 32264)	2		17548		9057	
CG6040 (GeneID 42292)	1		1952	4407	672	1408

Additional entries follow.
predicted target	reagent	reporter change call, replicate 1	firefly reporter light, replicate 1	firefly reporter light, replicate 2	Renilla control light, replicate 1	Renilla control light, replicate 2
Oatp30B (GeneID 34268)	1		12244		2652	
CG33769 (GeneID 3772499)	1		21559		6339	
CG13215 (GeneID 36182)	1		5264		3184	
CG6425 (GeneID 43216)	1		1873	7587	1041	2298
CTCF (GeneID 38817)	1		4363		1072	
CG1620 (GeneID 35678)	1		14848		4069	
DIP-delta (GeneID 5740816)	1		899	7344	1027	3704
DIP-delta (GeneID 5740816)	2		1432	13872	1104	4457
tomboy40 (GeneID 35553)	1		17876		4552	
Ser (GeneID 43275)	1		8181		2802	
CG14995 (GeneID 38487)	1	Wg reporter activity raised (active)	7917		1040	
CG14106 (GeneID 39506)	1		6336		2626	
GNBP3 (GeneID 39020)	1		887	8218	915	2944
alphaCOP (GeneID 38199)	1		13392		3318	
CG9855 (GeneID 40556)	1		13453	7.29e5	4909	3.42e5
Cpr49Ab (GeneID 36345)	1		21303		14389	
CG8944 (GeneID 32517)	1		4224	7403	1664	3330
CG8944 (GeneID 32517)	2		5.95e5	6.25e5	3.00e5	2.28e5
CG33679 (GeneID 3772494)	1		21430		13155	
Targ1 (GeneID 40340)	1		21585		5533	
CG10576 (GeneID 38645)	1		3920		1282	
erm (GeneID 326152)	1		11111		5095	
c12.2 (GeneID 53434)	1		12492		6427	
Cyp28c1 (GeneID 32138)	1		20683		8968	
CG8379 (GeneID 41060)	1		13632		4994	
CG42365 (GeneID 37469)	1		1452	6449	649	2576
CG3760 (GeneID 37987)	1		3910		1221	
CG13743 (GeneID 35911)	1		19557		12788	
CG13743 (GeneID 35911)	2		4109	12338	480	1669
CG13743 (GeneID 35911)	3		6.89e5	6.22e5	2.02e5	74478
Ugt37B1 (GeneID 53584)	1		3290	6844	592	2502
Sas10 (GeneID 31447)	1		11965		8011	
Mvl (GeneID 42490)	1		4048	5688	1066	1600
CG5323 (GeneID 37137)	1		9784		3264	
maca (GeneID 41892)	1		9749		3014	
CG4951 (GeneID 43355)	1		2064	4870	896	1143
CG6472 (GeneID 36895)	1		4855		1733	
CG13454 (GeneID 39676)	1		3892		992	
ru (GeneID 44856)	1		4331		1881	
AGO2 (GeneID 39683)	1		2692		423	
AGO2 (GeneID 39683)	2		3190		884	
CG42714 (GeneID 10178862)	1		3482		2288	
